# According to patent publication US9850283B2 (BRISTOL-MYERS SQUIBB COMPANY, priority 2013, dated 2017):
# Test: general procedure: Fmoc solid-phase peptide synthesis; Fmoc-PEG12-Sieber amide resin; HATU/N-methyl morpholine (HCTU/DIEA on Liberty)
# Settings: whole synthesis, LCMS analysis, scale 0.05 mmol
row,Substance,final HPLC purity
1,C1Ac F mAla N P H H S W R W mNle mNle L C G PEG12-NH2,98%

# Same assay, conditions: whole synthesis, scale 0.05 mmol
row,Substance,isolated mass
1,C1Ac F mAla N P H H S W R W mNle mNle L C G PEG12-NH2,6.2 mg

# Test: general procedure: Fmoc solid-phase peptide synthesis; Sieber Amide resin (0.71 mmol/g); HATU/N-methyl morpholine (HCTU/DIEA on Liberty)
# Settings: cyclisation step, LCMS analysis
row,Substance,final HPLC purity
1,ClAc F L I V I R D R V F R C G NH2,99%

# Same assay, conditions: whole synthesis, LCMS analysis, scale of the general procedure 0.100 mmol
Substance,final HPLC purity,final LC-MS purity
ClAc F ^mAla N P H R S W R W ^mNle ^mNle L C G NH2,98%,–
ClAc F ^mAla N P H L Sar W A W ^mNle ^mNle R C G NH2,99%,–
ClAc F A N P H L Sar W S W ^mNle ^mNle R C G NH2,99%,–
ClAc F ^mAla N P H L Sar W S A ^mNle ^mNle R C G NH2,93%,–
ClAc F ^mAla N P H A Sar W S W ^mNle ^mNle R C G NH2,99%,–
ClAc F D-Phe I V I R D R V F R C G NH2,98%,–
ClAc F ^mAla N P H L G W S W ^mNle ^mNle R C G NH2,92%,–
ClAc-F-^mAla-^mNle-Sar-D-V-^mPhe-Y-Sar-W-Y-L-C-G-NH2,–,100.0%
"PEPTIDE1{[CH2CO].F.L.I.V.I.R.D.R.V.F.P.C.G.[am]}$PEPTIDE1,PEPTIDE1,1:R3-13:R3$$$V2.0",94%,–
ClAc F F L V I R D R V F R C G NH2,99%,–
ClAc F ^mAla N P H L Sar W S W Nle ^mNle R C G NH2,95%,–
ClAc-F-^mPhe-^mNle-Sar-D-V-^mPhe-Y-^mAla-W-Y-L-C-G-NH2,91%,–
ClAc F L I V I R D R L F R C G NH2,95%,–
"PEPTIDE1{[CH2CO].F.[mPhe].[mNle].[Sar].D.V.[mAla].Y.[Sar].W.Y.L.C.G.[am]}$PEPTIDE1,PEPTIDE1,1:R3-14:R3$$$V2.0",–,100%
ClAc F ^mAla N P H L Sar W S W ^mAla ^mNle R C G NH2,–,97%
ClAc F ^mAla A P H L Sar W S W ^mNle ^mNle R C G NH2,92%,–
ClAc-F-^mPhe-^mNle-Sar-D-V-^mPhe-Y-Gly-W-Y-L-C-G-NH2,98%,–
ClAc-A-^mPhe-^mNle-Sar-D-V-^mPhe-Y-Sar-W-Y-L-C-G-NH2,98%,–
ClAc F ^mAla N P H L Sar W S W ^mNle ^mNle R C NH2,–,100%
ClAc F Sar N P H L Sar W S W ^mNle ^mNle R C G NH2,97%,–
ClAc F F I V I R D R V F R C G NH2,95%,–
"PEPTIDE1{[CH2CO].F.[mPhe].[mNle].[Sar].D.V.[mPhe].A.[Sar].W.Y.L.C.G.[am]}$PEPTIDE1,PEPTIDE1,1:R3-14:R3$$$V2.0",–,100%
ClAc F ^mAla N P H L D-^mAla W S W ^mNle ^mNle R C G NH2,–,98%
ClAc F L F V I R D R V F R C G NH2,96%,–
ClAc F L I V I L D R V F R C G NH2,98%,–
C1Ac F mAla N P H L Sar W S W mNle mNle R C G PEG12-NH2,96%,–
ClAc F ^mAla N P L R S W R W ^mNle ^mNle L C G NH2,99%,–
ClAc-F-^mPhe-^mNle-^mAla-D-V-^mPhe-Y-Sar-W-Y-L-C-G-NH2,–,100%

Substance,final HPLC purity,final LC-MS purity
ClAc-F-^mPhe-^mNle-Sar-A-V-^mPhe-Y-Sar-W-Y-L-C-G-NH2,–,97%
ClAc F ^mAla N P A L Sar W S W ^mNle ^mNle R C G NH2,99%,–
ClAc F ^mAla N P H L Sar W S W ^mNle ^mNle A C G NH2,99%,–
ClAc F ^mAla N P H L Sar A S W ^mNle ^mNle R C G NH2,93%,–
ClAc-F-^mPhe-^mNle-Sar-D-A-^mPhe-Y-Sar-W-Y-L-C-G-NH2,–,95.7%
ClAc F L I V I H D R V F R C G NH2,98%,–
ClAc F L L V I R D R V F R C G NH2,99%,–
ClAc F ^mAla N P H H S W R W ^mNle ^mNle L C G NH2,93%,–
ClAc F ^mAla N P H L Sar W S W ^mNle ^mNle R C G NH2,97%,–
ClAc-F-^mPhe-^mNle-Gly-D-V-^mPhe-Y-Sar-W-Y-L-C-G-NH2,–,97.7%
ClAc A ^mAla N P H L Sar W S W ^mNle ^mNle R C G NH2,–,98%
ClAc F ^mAla N P H L Sar W S W ^mNle Nle R C G NH2,91%,–
ClAc-F-^mPhe-^mNle-Sar-D-V-Phe-Y-Sar-W-Y-L-C-G-NH2,90%,–
ClAc-F-^mPhe-^mNle-Sar-D-V-^mPhe-Y-Sar-W-A-L-C-G-NH2,–,96%
ClAc-F-^mPhe-^mNle-Sar-D-V-^mPhe-Y-Sar-W-Y-A-C-G-NH2,97%,–
"PEPTIDE1{[CH2CO].F.[mVal].N.P.H.L.[Sar].W.S.W.[mNle].[mNle].R.C.G.[am]}$PEPTIDE1,PEPTIDE1,1:R3-15:R3$$$V2.0",–,100%
ClAc F L I F I R D R V F R C G NH2,95%,–
ClAc F ^mAla N P H L Sar W S W ^mNle ^mAla R C G NH2,99%,–
ClAc F ^mAla N P H L Sar W S W ^mNle ^mNle R ^DCys G NH2,–,98%
ClAc F L I V I R D R F F R C G NH2,95%,–
ClAc-F-^mPhe-^mNle-Sar-D-V-^mPhe-Y-Sar-W-Y-L-C-G-NH2,–,97.9%
ClAc F ^mAla N A H L Sar W S W ^mNle ^mNle R C G NH2,93%,–
ClAc F L I V I R D R V F Y C G NH2,98%,–
ClAc-F-Phe-^mNle-Sar-D-V-^mPhe-Y-Sar-W-Y-L-C-G-NH2,–,99%
ClAc Trp ^mAla N P H L Sar W S W ^mNle ^mNle R C G NH2,–,100%
ClAc 2-Nal ^mAla N P H L Sar W S W ^mNle ^mNle R C G NH2,–,100%
ClAc F L I Y I R D R V F R C G NH2,91%,–

# Same assay, conditions: whole synthesis, LCMS analysis, scale of the general procedure 0.100 mmol; run 1
Substance,final HPLC purity,final LC-MS purity
ClAc F L I V V R D R V F R C G NH2,98%,–
"PEPTIDE1{[CH2CO].F.[mAla].N.P.H.L.[Dab].W.S.W.[mNle].[mNle].R.C.G.[am]}$PEPTIDE1,PEPTIDE1,1:R3-15:R3$$$V2.0",–,100%

# Same assay, conditions: whole synthesis, LCMS analysis, scale of the general procedure 0.100 mmol; run 2
Substance,final HPLC purity,final LC-MS purity
ClAc F L I V V R D R V F R C G NH2,96%,–
"PEPTIDE1{[CH2CO].F.[mAla].N.P.H.L.[Dab].W.S.W.[mNle].[mNle].R.C.G.[am]}$PEPTIDE1,PEPTIDE1,1:R3-15:R3$$$V2.0",–,97.5%

# Same assay, conditions: whole synthesis, LCMS conditions B and D, scale of the general procedure 0.100 mmol
row,Substance,final LC-MS purity
1,"PEPTIDE1{[CH2CO].F.[mAla].N.P.H.D.[Sar].W.S.W.[mNle].[mNle].R.C.G.[am]}$PEPTIDE1,PEPTIDE1,1:R3-15:R3$$$V2.0",97%

# For part of these data: HELM strings list residues between dots; [ac] is acetyl, [am] amide, other brackets name non-standard units.
